Assay results reported in publication PMC4017264, “Molecular Basis and Regulation of OTULIN-LUBAC Interaction” (Molecular Cell, 2014).
No constants are given. Whether binding was seen depends on the method and setting. Some results given as binding are weak or reduced against the parent protein; the word gives no strength.

Protein sequences, listed by entry. Tags and fused reporters are not part of them. Lines headed by an entry give the natural chain unless they say otherwise; changes in a name come on top.
UniProt Q96BN8: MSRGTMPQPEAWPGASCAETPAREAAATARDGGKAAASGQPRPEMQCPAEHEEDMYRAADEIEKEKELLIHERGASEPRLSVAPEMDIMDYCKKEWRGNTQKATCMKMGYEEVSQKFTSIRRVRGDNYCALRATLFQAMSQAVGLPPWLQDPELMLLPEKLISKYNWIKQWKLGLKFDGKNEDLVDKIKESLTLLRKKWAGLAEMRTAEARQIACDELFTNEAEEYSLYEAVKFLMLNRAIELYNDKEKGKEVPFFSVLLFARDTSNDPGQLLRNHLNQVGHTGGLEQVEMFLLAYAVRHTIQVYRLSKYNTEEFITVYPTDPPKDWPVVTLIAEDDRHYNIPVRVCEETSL
UniProt Q96EP0: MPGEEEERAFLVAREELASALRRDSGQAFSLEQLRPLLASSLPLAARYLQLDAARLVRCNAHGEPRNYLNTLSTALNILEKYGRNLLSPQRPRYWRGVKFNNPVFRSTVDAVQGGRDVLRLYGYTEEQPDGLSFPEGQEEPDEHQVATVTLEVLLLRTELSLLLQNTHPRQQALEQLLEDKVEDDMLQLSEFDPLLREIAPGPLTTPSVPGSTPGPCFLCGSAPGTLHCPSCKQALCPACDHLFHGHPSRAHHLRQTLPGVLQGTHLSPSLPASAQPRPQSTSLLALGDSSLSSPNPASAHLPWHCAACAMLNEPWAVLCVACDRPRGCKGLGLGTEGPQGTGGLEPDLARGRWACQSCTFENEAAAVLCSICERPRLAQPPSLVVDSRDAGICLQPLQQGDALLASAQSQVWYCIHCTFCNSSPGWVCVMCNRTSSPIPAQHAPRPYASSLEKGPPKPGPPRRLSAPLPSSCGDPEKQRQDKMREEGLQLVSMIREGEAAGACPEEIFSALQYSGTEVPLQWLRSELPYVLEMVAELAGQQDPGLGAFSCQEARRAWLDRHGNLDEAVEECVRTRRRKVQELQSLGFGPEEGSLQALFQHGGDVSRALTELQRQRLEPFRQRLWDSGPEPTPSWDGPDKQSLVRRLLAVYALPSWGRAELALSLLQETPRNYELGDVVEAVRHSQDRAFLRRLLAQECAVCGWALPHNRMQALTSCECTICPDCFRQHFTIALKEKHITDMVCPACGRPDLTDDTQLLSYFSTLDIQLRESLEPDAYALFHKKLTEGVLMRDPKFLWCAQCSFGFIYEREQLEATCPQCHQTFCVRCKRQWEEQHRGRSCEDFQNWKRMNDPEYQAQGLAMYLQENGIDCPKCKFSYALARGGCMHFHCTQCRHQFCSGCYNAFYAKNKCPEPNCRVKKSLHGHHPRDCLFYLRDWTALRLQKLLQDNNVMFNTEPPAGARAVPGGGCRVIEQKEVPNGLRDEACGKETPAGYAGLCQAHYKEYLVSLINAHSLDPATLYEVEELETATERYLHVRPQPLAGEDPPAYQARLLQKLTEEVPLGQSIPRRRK

Key:
[1] = target: FITC-Ahx-labeled OTULIN PIM peptide (aa 49–67) (UniProt Q96BN8); experiment: fluorescence polarisation; serially diluted PUB domains and HOIP variants mixed with an equal volume of 100 nM FITC-Ahx-labeled peptide; one-site binding model; triplicate; both purified
[2] = target: endogenous HOIP (human (endogenous in HEK293T, HEK293ET, U2OS, RPE1)) (UniProt Q96EP0); experiment: SEC; gel filtration of U2OS and RPE1 cell lysates (Figure S8)
[3] = target: endogenous HOIP (human (endogenous in HEK293T, HEK293ET, U2OS, RPE1)) (UniProt Q96EP0); experiment: SEC; gel filtration of HEK293ET cell lysates (phosphatases inhibited); fractions probed with antibodies
[4] = target: fluorescently labeled OTULIN PIM peptide (aa 49–67) M55L (UniProt Q96BN8); experiment: fluorescence polarisation; serially diluted PUB domains and HOIP variants mixed with an equal volume of 100 nM FITC-Ahx-labeled peptide; one-site binding model; triplicate; both purified

Row | binding [1] | binding [2] | binding [3] | binding [4] | Binder
1 | no binding |  |  |  | UBXD1 PUB domain (aa 150–264) (domain or fragment, UniProt Q9BZV1 150-264) STDPVAASIMKIYTFNKDQDRVKLGVDTIAKYLDNIHLHPEEEKYRKIKLQNKVFQERINCLEGTHEFFEAIGFQKVLLPAQDQEDPEEFYVLSETTLAQPQSLERHKEQLLAAE
2 |  | binds | binds |  | endogenous SHARPIN (protein, UniProt Q9H0F6 1-387) MAPPAGGAAAAASDLGSAAVLLAVHAAVRPLGAGPDAEAQLRRLQLSADPERPGRFRLELLGAGPGAVNLEWPLESVSYTIRGPTQHELQPPPGGPGTLSLHFLNPQEAQRWAVLVRGATVEGQNGSKSNSPPALGPEACPVSLPSPPEASTLKGPPPEADLPRSPGNLTEREELAGSLARAIAGGDEKGAAQVAAVLAQHRVALSVQLQEACFPPGPIRLQVTLEDAASAASAASSAHVALQVHPHCTVAALQEQVFSELGFPPAVQRWVIGRCLCVPERSLASYGVRQDGDPAFLYLLSAPREAPATGPSPQHPQKMDGELGRLFPPSLGLPPGPQPAASSLPSPLQPSWSCPSCTFINAPDRPGCEMCSTQRPCTWDPLAAAST
3 | no binding |  |  | no binding | PNGase PUB domain (aa 11–109) (domain or fragment, UniProt Q96IV0 11-109) GSASPAVAELCQNTPETFLEASKLLLTYADNILRNPNDEKYRSIRIGNTAFSTRLLPVRGAVECLFEMGFEEGETHLIFPKKASVEQLQKIRDLIAIER
